Data as given in PubChem BioAssay AID2685 (National Center for Advancing Translational Sciences (NCATS), 2010).
In all, about 320,000 compounds went through this assay and about 2,100 (0.66%) were called active. The shares of active, inactive and inconclusive entries below differ from those in the screen. The call rests on the fitted dose curve; in most records, active means well fitted inhibition curve with a large enough effect in the signal ratio, with a control signal flat (not every such curve was filed as active); inconclusive means small, poorly fitted or top-dose-only effect, or effect the other way, or a change in a side signal; inactive means flat fitted curve, though single readings scatter; the % refers to the signal ratio. Potencies beside an inconclusive call are fits to weak or partial responses and may not hold up.

assay: qHTS Assay for Lipid Storage Modulators in Drosophila S3 Cells; settings: BODIPY lipid droplet fluorescence, 18-24 h, cells fed with added oleic acid; lipid storage change, negative = inhibition: at 46.1 µM (top of the series) unless noted
Procedure, shortened: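 Drosophila S3 cells loaded with oleic acid (400 uM, as added) and compounds at several concentrations; lipid droplets imaged by 488-nm laser-scanning cytometry, 500–530 nm intensity and object ratio to cell channel. Percent activity normalized to 20 uM Triacsin C.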
On the % scale 0 is the no-effect control and ±100 the full control effect; potency means the concentration at half of the fitted maximal effect.

Compound | lipid storage change, negative = inhibition | Potency
Cc1ccc(-c2csc(NC(=O)CCCc3cccs3)n2)cc1 | inconclusive: 13.7% | 
COc1ccccc1N1CCN(S(=O)(=O)c2ccc(-c3cnc(C4CC4)o3)cc2)CC1 | inconclusive: 11.6% | 
Cc1occc1-c1nnc(SCC(=O)N2CCCCC2)n1C | inconclusive | 
CCOC(=O)Oc1ccc2c(=O)c(Oc3cccc(C)c3)coc2c1 | inconclusive: -10.7% | 
Cc1ccc(C2=NC3(CCCC3)NC2=S)cc1 | inactive: 6.56% [at 9.22 µM] | 
O=C(CN1C(=O)c2ccccc2C1=O)NCc1ccccn1 | inconclusive: -15.8% | 
C=CCOC(=O)C1=C(C)NC(C)=C(C(=O)OCC=C)C1c1ccc(O)cc1 | inconclusive: 26.1% | 
C[C@@H](CN=[N+]=[N-])CN1CC[C@H](NC(=O)OCc2ccccc2)CCC1=O |  | inconclusive: 29.1 µM [falling, single point]
CC(C)OC(=O)C[N+](C)(C)CCN1C(=O)C2C(c3ccccc3)C=CC(c3ccccc3)C2C1=O (stereo unspecified) | inconclusive: 7.58% | 
CCCCOc1ccc(C(=O)N(CC)CC(=O)NCc2cccs2)cc1 | inconclusive: 27.3% | 
CCN(CC)S(=O)(=O)c1ccc(F)cc1 | inactive | 
O=C(N/N=C/c1ccc(Cl)c([N+](=O)[O-])c1)C1CC1 | inconclusive: 7.46% | 
O=C(O)C1CC(=O)N(Cc2cccnc2)C1 (stereo unspecified) |  | inconclusive: 0.184 µM [falling, full curve]
Cc1cccc(C(=O)N/N=C/c2cc(Br)c(Br)o2)c1 | inconclusive: 32.2% | 
CCOC(=O)Cc1ccc(NC(=O)c2ccc(C(C)(C)C)cc2)cc1 |  | inconclusive: 6.51 µM [activator, single point]
Cc1cc(C)c2c(c1)OC(O)(C(F)F)CC2=O (stereo unspecified) | inconclusive: -9.01% | 
COC(=O)c1ccc(C(=O)N2CCCC(Nc3ccc(F)c(F)c3)C2)cc1 (stereo unspecified) | inconclusive: 260% | 
CCCCc1ccc(NC(=S)NCc2cccs2)cc1 | inconclusive: -14.5% | 
CCCCOC(=O)Sc1nc2ccccc2o1 | inconclusive: -43.5% | 
C=CCOc1ccc(C2N3CC4(C)CN2CC(CCC)(C3)C4=O)cc1 (stereo unspecified) | inconclusive: -25.2% | 
COc1ccc(S(=O)(=O)N2CCOCC2)cc1NC(=O)CC1CCCC1 | inconclusive: 14.7% | 

Compound | lipid storage change, negative = inhibition | Potency
O=C(COc1ccccc1)Nc1ccc(S(=O)(=O)N2CCCC2)cc1 | inconclusive: 20.5% [at 9.22 µM] | 
N#CCN(N=Nc1ccccc1)c1ccccc1 | inconclusive: -7.74% | 
Cc1nn(C)c(C)c1S(=O)(=O)N(CC(=O)NCCCN1CC(C)CC(C)C1)c1ccc(C(C)C)cc1 (stereo unspecified) |  | inconclusive: 25.9 µM [falling, partial curve, poor fit]
CN(CCC#N)C(=O)COC(=O)/C=C/c1cccs1 | inconclusive: 24.6% | 
Cn1c(C(=O)N[C@@H](Cc2ccccc2)C(=O)O)cc2cc(F)ccc21 | inconclusive: 39.3% | 
Cc1ccccc1NC(=O)CSc1nnc(-c2ccco2)c(-c2ccco2)n1 | inconclusive: 17.5% | 
COc1ccc(CCNCC(O)COc2cccc(Br)c2)cc1 (stereo unspecified) | inconclusive: -0.618% | 
Cn1c(S(=O)(=O)Cc2ccc(Cl)cc2)nc2ccccc21 | inconclusive: 13.4% | 
O=C(c1ccccc1)N1CCn2c(nc3ccccc32)C1 | inconclusive: 1.69% | 
O=C(c1cn(-c2ccccc2)nc1-c1ccc(Cl)cc1)N1CCOCC1 | inconclusive: 28% | 
COc1cc(OC)c(NC(=O)CCNS(=O)(=O)c2ccc3c(c2)oc(=O)n3C)cc1Cl | inconclusive: -18.4% | 
CCOC(=O)c1c(Cc2cccc(Cl)c2)c[nH]c1C |  | inconclusive: 16.4 µM [cytotoxic, single point]
COc1ccc2c(c1)c(-c1csc(N)n1)c(C)n2C | inconclusive: -15.6% | 
COc1cc(C2=NOC(C(=O)N3CCCCCC3)C2)cc(OC)c1OC (stereo unspecified) | inconclusive: 22.8% | 
Cc1cc(C)cc(OCCn2ccnc2)c1 |  | inconclusive: 8.2 µM [falling, single point]
COc1ccc(NC(=O)Cn2cc(C(C)=O)c3ccccc32)cc1 | inconclusive: -28.1% | 
O=C(c1ccccc1)C1CCN(C(=O)C2CCC(=O)N(Cc3cccc(F)c3)C2)CC1 (stereo unspecified) |  | inconclusive: 14.6 µM [falling, single point]
CC(C)OCCCNC(=O)C(NC(=O)c1ccc(Cl)cc1)C(C)C (stereo unspecified) | inactive | 
O=C(Nc1cccc2ccccc12)N1CC=C(c2ccccc2)CC1 | inconclusive: -36.8% | 
COc1ccccc1CC(=O)Nc1nc(-c2ccc(F)c(F)c2)cs1 | inconclusive: -40.1% | 
COc1ccc(NC(=O)CN(C)C(=O)c2ccc3c(c2)S(=O)(=O)N=C2CCCCCN23)cc1 |  | inconclusive: 0.411 µM [falling, full curve, poor fit]

Compound | lipid storage change, negative = inhibition | Potency
O=C(COC(=O)c1ccccn1)NC(=O)c1ccccc1 | inconclusive: 8.88% | 
CC(C)c1ccc2[nH]c3nc(SCC(=O)NC4CC4)nnc3c2c1 |  | active: 0.651 µM
CCN(CC)C(=O)C1CCCN(Cc2cccc(Oc3ccccc3)c2)C1 (stereo unspecified) | inconclusive: 30.8% | 
O=C1C(NS(=O)(=O)c2ccc(Cl)cc2)=C(N2CCCCC2)C(=O)c2ccccc21 |  | inconclusive: 14.6 µM [cytotoxic, partial curve]
O=C(CNC(=O)c1ccccc1Br)N/N=C/c1ccc(O)cc1 | inconclusive: 2.41% | 
COc1cccc(C(=O)NNC(=O)CCC(=O)O)c1 |  | inconclusive: 0.0046 µM [falling, full curve, poor fit]
C/C(=N/OC(=O)CC(C)C)c1cc(-c2ccc(Cl)cc2)no1 | inconclusive: -42.3% [cytotoxic] [at 0.00295 µM] | 
Cc1ccc(-c2cc3nc(C)cc(NCc4ccco4)n3n2)cc1 | inconclusive: 87.4% | 
Cc1ccc(C)c(S(=O)(=O)N2CCCOC2CNC(=O)C(=O)NCc2cccs2)c1 (stereo unspecified) | inconclusive: 27.5% | 
Cc1cc(=O)oc2cc(OCC(=O)N3CCCC(C)C3)ccc12 (stereo unspecified) | inconclusive: 8.48% | 
O=C(CSc1nnc(NC(=O)c2ccco2)s1)Nc1ccccc1Br |  | inconclusive: 6.51 µM [activator, single point]
O=Nc1[nH]c(=O)c(/C=C(\O)c2ccccc2)nc1NO | inconclusive: -20.7% | 
Cc1ccccc1NC1c2ccccc2C(=O)N1Cc1ccco1 (stereo unspecified) | inconclusive: 10.1% | 
CCCCC(O)(CCCC)C(=O)N/N=C(\C)c1ccc(Cl)cc1 |  | inconclusive: 29.1 µM [falling, single point]
COc1cc(-c2nnn(Cc3ccccc3C)n2)cc(OC)c1OC | inconclusive: -58.7% | 
CCN(CC)CC(O)Cn1c(-c2cccc(Cl)c2)nc2cc(C)c(C)cc21 (stereo unspecified) | inconclusive: -7.73% | 
CCOc1ccc2ccccc2c1C(=O)Nc1cc(=O)n(C)c(=O)n1C | inactive | 
Cc1ccc(OCCC(=O)NNC(=O)c2nn(C)c(=O)c3ccccc23)cc1 |  | inconclusive: 0.0052 µM [activator, full curve, poor fit]
CCN1CCN(S(=O)(=O)c2ccc3[nH]c(=O)oc3c2)CC1 | inconclusive: -4.99% | 
O=C(c1ccccn1)N1CCN(S(=O)(=O)c2cccc(Br)c2)CC1 | inconclusive: 13.3% | 
OC(CNCC1COc2ccccc2O1)COc1ccc(Cl)cc1 (stereo unspecified) | inconclusive: 167% | 

Individual results from the list.
Value of Cc1ccc(C)c(S(=O)(=O)N2CCCOC2CNC(=O)C(=O)NCc2cccs2)c1 (stereo unspecified) under lipid storage change, negative = inhibition: inconclusive: 27.5%
Value of Cc1ccccc1NC1c2ccccc2C(=O)N1Cc1ccco1 (stereo unspecified) under lipid storage change, negative = inhibition: inconclusive: 10.1%

Later entries:

Compound | lipid storage change, negative = inhibition | Potency
CC(=O)N=Nc1[nH]c(N)c2ccccc12 | inconclusive: 13.4% | 
CC(C)CN(CC(C)C)C(=O)Nc1cccc([N+](=O)[O-])c1 | inconclusive: 3.14% | 
Cc1oc2c(CN3CCCCC3)c(O)ccc2c(=O)c1-c1ccc(Br)cc1 | inconclusive: -32.6% | 
CC(=O)N1CCN(c2ccccc2NC(=O)c2ccc(-c3cccc([N+](=O)[O-])c3)o2)CC1 | inconclusive: -4.45% | 
O=C(COc1ccc(S(=O)(=O)NC2CCCCC2)cc1Cl)Nc1ccc2c(c1)OCO2 |  | inconclusive: 29.1 µM [activator, single point]
Cc1ccc(S(=O)(=O)N2CCN(C(=O)c3ccccc3OCc3c(C)noc3C)CC2)cc1 | inconclusive: -1.31% | 
CCc1nnc(NC(=O)c2ccc(-c3ccccc3F)o2)s1 | inconclusive: -8.81% | 
Cc1ccc(C)c(OCc2cc(C(=O)N3CC[C@H](O)C3)no2)c1 | inconclusive: 251% | 
O=C(OCc1cccc(F)c1)c1cc2ccccc2cc1O |  | inconclusive: 0.651 µM [activator, full curve, poor fit]
COc1cc(NC(=S)NCCC(c2ccccc2)c2ccccc2)cc(OC)c1 | inconclusive: 28.4% | 
Cc1cccc(C2c3[nH]c4ccccc4c3CCN2C(=O)c2cc(-c3cccn3C)n[nH]2)n1 (stereo unspecified) | inconclusive: -26% | 
COc1ccc(N(C)C(=O)c2ccc(NC(=O)CCS(=O)(=O)c3cccs3)cc2)cc1 | inconclusive: 350% | 
CCN(CC)C(=O)CSc1nnc(CCCCCNC(=O)OC(C)(C)C)o1 | inconclusive: -14.6% | 
CCN1CCN(CCc2nc3cc(NC(=O)COc4ccccc4)ccc3n2C)CC1 | inconclusive: 72.6% | 
Cc1cc(C)n(-c2nc3ccccc3nc2N2CCN(S(=O)(=O)c3ccc(F)c(C)c3)CC2)n1 |  | inconclusive: 0.206 µM [activator, full curve]
CCn1c(CSCc2ccc(C)cc2)nnc1SCC(=O)NCc1ccccc1 |  | active: 20.6 µM
CCOCCOC(=O)C1=C(C)N(C)C(=O)NC1c1cc(Cl)c(O)c(OC)c1 (stereo unspecified) |  | inconclusive: 29.1 µM [activator, single point]
c1ccc(CCNC2=NCCS2)cc1 | inconclusive: -38.8% | 

Five entries from above, tab-delimited.
Compound	lipid storage change, negative = inhibition	Potency
COc1cc(NC(=S)NCCC(c2ccccc2)c2ccccc2)cc(OC)c1	inconclusive: 28.4%	
Cc1cccc(C2c3[nH]c4ccccc4c3CCN2C(=O)c2cc(-c3cccn3C)n[nH]2)n1 (stereo unspecified)	inconclusive: -26%	
COc1ccc(N(C)C(=O)c2ccc(NC(=O)CCS(=O)(=O)c3cccs3)cc2)cc1	inconclusive: 350%	
CCN(CC)C(=O)CSc1nnc(CCCCCNC(=O)OC(C)(C)C)o1	inconclusive: -14.6%	
CCN1CCN(CCc2nc3cc(NC(=O)COc4ccccc4)ccc3n2C)CC1	inconclusive: 72.6%	
